Data from PubChem BioAssay AID2685 (National Center for Advancing Translational Sciences (NCATS), 2010).
This is one part of the list. Further columns of the screen follow, without active or inactive calls. The list favours compounds with an active or inconclusive main result. The note in brackets gives the kind of curve behind each potency; many fits are weak.

Assay: qHTS Assay for Lipid Storage Modulators in Drosophila S3 Cells;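 on cell number change: cells counted by Cell Tracker Red CMTPX staining in the red channel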
Details: BODIPY lipid droplet fluorescence, 18-24 h; for cell number change: measured here: cell count max response, cells fed with added oleic acid
Outline: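 Laser-scanning cytometry quantifies lipid droplet accumulation (500–530 nm total intensity; droplet/cell object ratio) in oleic acid-fed (400 uM added) Drosophila S3 cells treated with a concentration series. 20 uM Triacsin C defined 100% inhibition.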

[1] = measured here: lipid fluorescence (Fed channel) AC50, cells fed with added oleic acid
[2] = measured here: cell number channel AC50, cells fed with added oleic acid

SMILES	cell number change	AC50 [1]	AC50 [2]
CC(C)(C)CC(=O)N[C@@H](Cc1ccccc1)c1nc2ccccc2[nH]1	-2.7%	6.51 µM [falling, single point]	
O=C(NCCc1ccncc1)Nc1cccc(Cl)c1	11.9%		0.411 µM [rising, full curve, poor fit]
CCn1c(SCC(=O)N2CCN(c3ccc(F)cc3)CC2)nc2ccccc2c1=O	10.7%	0.731 µM [rising, full curve]	
COc1ccc(-n2c(=O)c3ccccc3n(CC(=O)NCc3ccco3)c2=O)cc1	4.94%	0.184 µM [falling, full curve, poor fit]	
Cc1cccc(NS(=O)(=O)c2ccc3nc(-c4ccccc4)[nH]c3c2)c1C	3.69%	0.731 µM [falling, single point]	
CCc1nnc(NC(=O)C2CC(=O)N(CCc3ccccc3)C2)s1 (stereo not drawn)	6.58%	32.6 µM [rising, single point]	
Cc1ccccc1-c1ocnc1C(=O)Nc1ccccc1NC(=O)c1ccccn1	23.7%		
COC(=O)Cn1c(=O)c2c(nc3n2CCCN3CCc2ccccc2)n(C)c1=O			0.651 µM [rising, full curve, poor fit]
Cc1ccc2oc(-c3ccc(C)c(NC(=O)Cc4cccs4)c3)nc2c1	3.17%	0.0731 µM [falling, full curve, poor fit]	
O=C(Nc1ccc(S(=O)(=O)Nc2nccs2)cc1)C1CC(=O)N(c2ccccc2)C1 (stereo not drawn)	9.51%		
O=C(Nc1ccccc1F)c1ccccc1-c1ccc(C(F)(F)F)cc1	17.8%	2.91 µM [rising, full curve]	1.84 µM [rising, single point]
CC1Cc2cc(S(=O)(=O)N3CCN(C)CC3)ccc2N1C(=O)C1CC1 (stereo not drawn)	11.9%	29.1 µM [rising, single point]	
O=C(CSc1ccc(F)cc1)NCC1(N2CCOCC2)CCCCC1	-99.7%		29.1 µM [falling, single point]
CC1CCCC(C)N1/N=C/c1ccc(N(C)C)cc1 (stereo not drawn)	-30%	0.92 µM [falling, full curve]	1.3 µM [falling, full curve, poor fit]
O=C1CC(C(=O)NCc2ccccc2)C2(CCCC2)O1 (stereo not drawn)	4.53%		4.11 µM [falling, single point]
CCCn1nnc2sc3c(c2c1=O)CCC(C)C3 (stereo not drawn)	8.96%	0.651 µM [rising, single point]	
Cc1cc(C)n2nc(C(=O)Nc3ccc4c(c3)OCO4)nc2n1		6.51 µM [rising, single point]	0.13 µM [rising, full curve, poor fit]
COc1ccc(Cl)cc1C(=O)NNC(=O)c1n[nH]c2ccccc12	83.9%	16.4 µM [rising, partial curve, poor fit]	18.4 µM [rising, single point]
CCCc1cc(=O)[nH]c(SCc2nc3ccc([N+](=O)[O-])cc3[nH]2)n1	12.5%	18.4 µM [rising, single point]	
CCCc1cc(=O)oc2c(C)c(OCC(=O)N3C[C@H]4C[C@@H](C3)c3cccc(=O)n3C4)ccc12	23%		
O=C(Nc1ccc(F)cc1F)c1cccc(C(=O)Nc2ccc(F)cc2F)n1	-3.47%	29.1 µM [rising, single point]	

SMILES	cell number change	AC50 [1]	AC50 [2]
Cc1ccc(C(=O)Nc2ccccc2C(=O)O)cc1NC(=O)COc1c(C)cccc1C	-11.7%	29.1 µM [falling, single point]	
COc1ccc(S(=O)(=O)NCCc2csc(-c3cccnc3)n2)cc1		0.058 µM [rising, full curve, poor fit]	
O=C1CC(N2CCN(c3ccc(Cl)cc3)CC2)C(=O)N1c1ccc(F)cc1 (stereo not drawn)	-15.2%	6.51 µM [rising, single point]	
Cc1ccc(C(=O)Nc2cc(C(F)(F)F)ccc2-n2cncn2)o1	10%	3.66 µM [rising, full curve, poor fit]	
Cc1ccc(C(C)C)c(OCC(O)CN(C)Cc2ccccc2)c1 (stereo not drawn)	-66.3%	18.4 µM [falling, single point]	18.4 µM [falling, single point]
COCCNC(=O)C(C)Oc1ccc(Cl)cc1Cl (stereo not drawn)	31.3%		0.0146 µM [rising, full curve, poor fit]
COc1cc(C(=O)N2CCCC(c3nc(-c4cccs4)no3)C2)cc(OC)c1OC (stereo not drawn)			2.06 µM [falling, partial curve]
CCOC(=O)N1CCN(Cc2nnc(-c3cccc(Br)c3)o2)CC1	-18.4%		0.206 µM [falling, full curve, poor fit]
Cc1ccc(C)c(CN2CCCNC2=O)c1	-114%	6.51 µM [rising, single point]	5.17 µM [rising, single point]
CC(C(=O)Nc1ccc(N2CCOCC2)cc1)N1C(=O)c2ccccc2C1=O (stereo not drawn)	-131%	29.1 µM [falling, single point]	18.4 µM [falling, single point]
COc1ccc(OC)c(NC(=O)CSc2nnc(CCCO)n2-c2ccccc2)c1	153%		11.6 µM [rising, partial curve]
C/C=C/C=[N+](\[O-])C(C)/C(=N/O)c1ccc(F)cc1 (stereo not drawn)	-12.2%		
CCOC(=O)N1CCC(NC(=O)C(NS(=O)(=O)c2cccc3nsnc23)c2ccccc2)CC1 (stereo not drawn)	-5.33%		0.0058 µM [falling, full curve, poor fit]
COc1ccc(C2CC(c3cccs3)=NN2C(=O)CCC(=O)O)cc1OC (stereo not drawn)	23.9%	29.1 µM [falling, partial curve]	
O=C(N/N=C\C=C\c1ccc2c(c1)OCO2)C1COc2cc3ccccc3cc2O1 (stereo not drawn)	-22.5%		0.651 µM [falling, single point]
CCc1ccc2oc(C(=O)Nc3ccc(S(N)(=O)=O)cc3)c(C)c2c1	52.2%	8.2 µM [rising, partial curve]	14.6 µM [rising, partial curve, poor fit]
CCCCN(CC)CCNC(=O)c1ccc2c(Cl)c3c(nc2c1)CCC3	-18.3%	23.1 µM [rising, single point]	
CCOC(=O)c1oc2c(c1C)C(=O)CCC2	75.9%		18.4 µM [rising, single point]
O=C1NN(c2ccc(Br)cc2)C(=O)/C1=C\c1ccc(O)cc1O	-19.1%		
Cc1onc(-c2ccccc2Cl)c1C(=O)OCC(=O)Nc1ccc2c(c1)OCO2	-15.6%		
COc1cccc(CC(=O)Nc2cc(C(F)(F)F)ccc2N2CCCC2)c1		0.82 µM [rising, full curve]	

SMILES	cell number change	AC50 [1]	AC50 [2]
O=S(=O)(c1cccc(-c2cn3cccnc3n2)c1)N1CCCCCC1	-17.4%	2.06 µM [rising, full curve]	
CCn1c2ccccc2c2cc(NC(=O)COc3ccc(OC)cc3)ccc21	4.02%	29.1 µM [falling, single point]	
CCn1c(SCC(=O)N2CCCC2)nnc1-c1ccc(N)cc1	21.8%		0.164 µM [rising, full curve, poor fit]
O=C(NNC1CC(=O)N(c2cccc(Cl)c2)C1=O)c1cccs1 (stereo not drawn)		9.2 µM [rising, partial curve]	
CN(CC(=O)Nc1ccc(F)cc1Cl)Cc1cccs1	-3.91%		
CCOC(=O)n1cc(-c2cnc(CNC(=O)C(C)(c3ccccc3)c3ccccc3)o2)c2ccccc21	6.57%	1.3 µM [rising, partial curve]	
COc1ccc(NC(=O)C/C(C)=N/NC(=O)CCc2ccccc2)c(OC)c1			6.51 µM [rising, single point]
CN(C)N1C(N)=C(C#N)C(c2ccc(Br)cc2)C2=C1CCCC2=O (stereo not drawn)	8.33%		
CC(C)Cn1c(SCC(=O)NC2CCCc3ccccc32)nc(O)cc1=O (stereo not drawn)	-1.08%	6.51 µM [rising, single point]	
O=C(NC1CCCCCC1)C1Cc2ccccc2CN1C(=O)c1ccco1 (stereo not drawn)	-22.7%	29.1 µM [falling, single point]	
CN(CC(=O)NC(=O)NC1CCCCC1)CC(=O)Nc1ccc(Cl)cc1	-19.9%	0.82 µM [falling, partial curve, poor fit]	
CC(=O)Nc1ccc(N(C(=O)c2ccco2)C(C(=O)NC2CCCC2)c2ccc(N3CCOCC3)cc2)cc1 (stereo not drawn)	6.01%	0.0184 µM [rising, full curve, poor fit]	
COc1cc(CCC(=O)N2CCN(c3ccc([N+](=O)[O-])cc3)CC2)cc(OC)c1OC		2.91 µM [rising, single point]	
CCOC(=O)c1c(NC(=O)c2cccs2)sc(C)c1C	-11.7%	0.92 µM [rising, partial curve, poor fit]	
O=C(NCCc1ccc(O)c(O)c1)C1COc2ccccc2O1 (stereo not drawn)	31.4%	29.1 µM [rising, single point]	2.59 µM [rising, partial curve, poor fit]
CCCNCc1cc(OCC)c(OCC(=O)Nc2ccccc2)cc1Br	146%		
Cc1ccsc1C1Nc2ccc3ncccc3c2C2=C1C(=O)CC(C)(C)C2 (stereo not drawn)	18.5%		
O=C(Nc1cccc(C(=O)O)c1)/C(=C\c1ccc2c(c1)OCO2)NC(=O)c1ccccc1Cl	16.8%		
c1ccc(-n2ncc3c(N4CCN(CCOc5cccc6ccccc56)CC4)ncnc32)cc1	89.4%	6.51 µM [rising, single point]	16.4 µM [rising, single point]

In a second layout: results already given.
O=S(=O)(c1cccc(-c2cn3cccnc3n2)c1)N1CCCCCC1
  cell number change: -17.4%; AC50 [1]: 2.06 µM [rising, full curve]
CCn1c2ccccc2c2cc(NC(=O)COc3ccc(OC)cc3)ccc21
  cell number change: 4.02%; AC50 [1]: 29.1 µM [falling, single point]
